Measurements reported in the supplement of paper PMC10849652.
The list shows a part of the results.

Sequences of proteins named here, by UniProt entry; tags and fusion partners are left off. A change or cut given only in a name is not applied to a line headed by its entry.
UniProt Q9H267: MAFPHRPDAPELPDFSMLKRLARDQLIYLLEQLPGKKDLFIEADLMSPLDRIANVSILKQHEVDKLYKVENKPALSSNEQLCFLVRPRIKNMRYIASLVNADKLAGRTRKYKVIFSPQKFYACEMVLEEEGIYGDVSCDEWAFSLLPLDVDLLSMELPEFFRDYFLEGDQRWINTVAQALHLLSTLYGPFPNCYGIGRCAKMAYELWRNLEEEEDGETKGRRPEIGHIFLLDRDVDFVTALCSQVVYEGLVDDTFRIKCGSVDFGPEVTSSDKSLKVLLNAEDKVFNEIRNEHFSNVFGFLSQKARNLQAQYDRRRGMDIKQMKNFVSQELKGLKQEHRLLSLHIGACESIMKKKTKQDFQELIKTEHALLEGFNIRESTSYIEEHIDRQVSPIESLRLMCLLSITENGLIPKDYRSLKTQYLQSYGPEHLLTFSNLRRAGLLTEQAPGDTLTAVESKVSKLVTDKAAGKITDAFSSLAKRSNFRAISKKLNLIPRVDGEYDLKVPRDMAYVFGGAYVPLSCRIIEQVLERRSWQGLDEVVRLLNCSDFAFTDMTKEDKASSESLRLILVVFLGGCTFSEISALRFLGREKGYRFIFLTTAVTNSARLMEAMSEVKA
UniProt Q9NRW7: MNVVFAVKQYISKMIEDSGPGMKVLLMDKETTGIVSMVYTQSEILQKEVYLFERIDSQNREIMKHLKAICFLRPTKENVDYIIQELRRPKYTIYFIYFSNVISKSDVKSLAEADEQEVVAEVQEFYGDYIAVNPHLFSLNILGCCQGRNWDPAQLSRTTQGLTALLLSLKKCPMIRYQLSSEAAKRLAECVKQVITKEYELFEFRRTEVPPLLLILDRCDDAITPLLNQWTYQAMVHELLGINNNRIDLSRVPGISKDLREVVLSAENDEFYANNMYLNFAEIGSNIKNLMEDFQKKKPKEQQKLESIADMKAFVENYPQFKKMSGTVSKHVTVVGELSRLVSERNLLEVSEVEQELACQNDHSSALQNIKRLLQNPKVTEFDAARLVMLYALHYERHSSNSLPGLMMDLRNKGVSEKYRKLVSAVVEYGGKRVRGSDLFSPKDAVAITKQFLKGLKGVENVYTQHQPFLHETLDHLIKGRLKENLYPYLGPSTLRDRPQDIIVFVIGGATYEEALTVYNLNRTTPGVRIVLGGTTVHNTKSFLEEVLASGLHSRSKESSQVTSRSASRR
UniProt O00534: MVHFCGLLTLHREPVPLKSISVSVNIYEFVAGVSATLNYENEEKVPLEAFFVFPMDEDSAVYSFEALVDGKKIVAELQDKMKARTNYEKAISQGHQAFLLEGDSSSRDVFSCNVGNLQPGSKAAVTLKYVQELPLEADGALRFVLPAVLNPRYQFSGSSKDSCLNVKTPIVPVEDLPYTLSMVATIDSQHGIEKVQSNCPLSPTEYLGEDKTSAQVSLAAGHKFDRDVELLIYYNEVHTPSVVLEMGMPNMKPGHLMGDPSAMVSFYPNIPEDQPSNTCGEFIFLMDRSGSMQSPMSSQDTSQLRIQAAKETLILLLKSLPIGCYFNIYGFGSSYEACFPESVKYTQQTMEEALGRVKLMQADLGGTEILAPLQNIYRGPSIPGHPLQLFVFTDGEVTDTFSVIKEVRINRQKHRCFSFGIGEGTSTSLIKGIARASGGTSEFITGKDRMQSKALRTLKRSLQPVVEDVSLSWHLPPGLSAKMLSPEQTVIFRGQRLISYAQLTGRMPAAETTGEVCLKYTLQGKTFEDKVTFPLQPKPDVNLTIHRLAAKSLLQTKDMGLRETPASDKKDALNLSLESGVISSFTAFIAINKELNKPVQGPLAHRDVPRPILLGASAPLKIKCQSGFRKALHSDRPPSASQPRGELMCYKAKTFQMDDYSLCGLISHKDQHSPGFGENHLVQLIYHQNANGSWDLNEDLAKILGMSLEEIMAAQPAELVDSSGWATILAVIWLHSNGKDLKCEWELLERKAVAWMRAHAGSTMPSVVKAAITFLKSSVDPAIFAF
UniProt Q8N2E2: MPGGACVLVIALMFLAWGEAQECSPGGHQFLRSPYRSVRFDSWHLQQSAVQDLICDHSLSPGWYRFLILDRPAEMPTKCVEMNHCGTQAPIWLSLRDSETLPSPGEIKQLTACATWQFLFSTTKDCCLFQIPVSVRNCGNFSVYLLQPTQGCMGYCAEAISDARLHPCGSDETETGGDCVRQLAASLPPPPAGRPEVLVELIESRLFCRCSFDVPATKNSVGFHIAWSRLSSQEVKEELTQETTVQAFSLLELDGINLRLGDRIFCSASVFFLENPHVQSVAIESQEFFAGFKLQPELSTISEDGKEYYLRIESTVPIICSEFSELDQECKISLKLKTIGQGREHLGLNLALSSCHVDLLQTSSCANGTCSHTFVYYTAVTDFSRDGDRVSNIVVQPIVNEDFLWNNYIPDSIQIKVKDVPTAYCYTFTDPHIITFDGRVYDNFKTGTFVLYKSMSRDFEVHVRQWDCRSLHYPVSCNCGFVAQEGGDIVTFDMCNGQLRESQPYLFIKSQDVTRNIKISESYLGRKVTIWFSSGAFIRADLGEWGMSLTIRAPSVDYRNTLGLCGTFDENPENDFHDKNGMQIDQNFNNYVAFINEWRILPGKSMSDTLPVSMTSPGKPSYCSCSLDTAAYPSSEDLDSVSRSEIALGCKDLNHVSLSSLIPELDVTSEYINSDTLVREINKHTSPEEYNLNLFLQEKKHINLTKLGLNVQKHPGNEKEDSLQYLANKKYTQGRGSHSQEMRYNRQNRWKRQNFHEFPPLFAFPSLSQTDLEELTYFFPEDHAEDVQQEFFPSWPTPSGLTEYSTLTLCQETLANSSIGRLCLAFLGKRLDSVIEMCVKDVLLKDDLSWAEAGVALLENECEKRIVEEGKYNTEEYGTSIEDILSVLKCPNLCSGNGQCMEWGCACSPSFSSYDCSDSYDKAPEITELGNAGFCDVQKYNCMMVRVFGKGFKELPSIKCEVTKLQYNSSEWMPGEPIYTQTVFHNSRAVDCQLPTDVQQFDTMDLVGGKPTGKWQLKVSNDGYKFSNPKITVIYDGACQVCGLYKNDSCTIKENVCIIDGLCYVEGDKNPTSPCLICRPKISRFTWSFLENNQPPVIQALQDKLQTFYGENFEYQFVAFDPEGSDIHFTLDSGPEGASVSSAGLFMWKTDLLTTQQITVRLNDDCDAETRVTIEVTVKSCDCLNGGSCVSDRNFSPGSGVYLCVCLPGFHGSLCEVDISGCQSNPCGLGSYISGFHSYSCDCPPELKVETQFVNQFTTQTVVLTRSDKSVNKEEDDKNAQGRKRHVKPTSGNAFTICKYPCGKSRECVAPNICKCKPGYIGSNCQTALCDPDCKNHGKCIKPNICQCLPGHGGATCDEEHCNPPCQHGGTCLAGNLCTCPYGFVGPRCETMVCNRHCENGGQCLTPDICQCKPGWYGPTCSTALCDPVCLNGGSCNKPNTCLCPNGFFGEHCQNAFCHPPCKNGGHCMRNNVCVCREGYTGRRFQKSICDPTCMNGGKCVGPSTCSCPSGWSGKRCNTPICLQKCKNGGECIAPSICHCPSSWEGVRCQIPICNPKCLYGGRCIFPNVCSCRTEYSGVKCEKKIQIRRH
UniProt Q5JSH3: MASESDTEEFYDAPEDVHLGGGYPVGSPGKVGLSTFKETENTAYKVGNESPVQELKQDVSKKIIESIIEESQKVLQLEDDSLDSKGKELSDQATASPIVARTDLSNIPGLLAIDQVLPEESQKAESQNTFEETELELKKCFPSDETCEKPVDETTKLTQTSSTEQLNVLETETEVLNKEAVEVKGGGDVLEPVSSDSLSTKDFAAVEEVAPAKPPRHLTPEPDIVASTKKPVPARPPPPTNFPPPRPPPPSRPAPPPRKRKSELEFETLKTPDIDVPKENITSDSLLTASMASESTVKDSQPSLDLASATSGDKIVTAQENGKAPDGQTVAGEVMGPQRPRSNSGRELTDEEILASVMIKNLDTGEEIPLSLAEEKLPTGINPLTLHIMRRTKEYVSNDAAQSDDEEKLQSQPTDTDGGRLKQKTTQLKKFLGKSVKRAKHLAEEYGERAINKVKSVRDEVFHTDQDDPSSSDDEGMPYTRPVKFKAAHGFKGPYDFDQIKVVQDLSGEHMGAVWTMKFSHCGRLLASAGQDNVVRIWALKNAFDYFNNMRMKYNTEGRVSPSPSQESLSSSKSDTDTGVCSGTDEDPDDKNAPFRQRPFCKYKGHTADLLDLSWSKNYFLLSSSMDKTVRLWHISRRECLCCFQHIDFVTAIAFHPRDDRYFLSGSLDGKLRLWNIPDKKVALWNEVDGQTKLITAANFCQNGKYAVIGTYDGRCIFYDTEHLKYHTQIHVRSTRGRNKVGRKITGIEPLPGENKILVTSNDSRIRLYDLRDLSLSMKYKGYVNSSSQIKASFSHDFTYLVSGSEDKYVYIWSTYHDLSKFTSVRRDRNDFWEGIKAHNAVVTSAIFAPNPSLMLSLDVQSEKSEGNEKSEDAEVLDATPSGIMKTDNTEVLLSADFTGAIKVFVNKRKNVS
UniProt Q14191, whole entry, looked up: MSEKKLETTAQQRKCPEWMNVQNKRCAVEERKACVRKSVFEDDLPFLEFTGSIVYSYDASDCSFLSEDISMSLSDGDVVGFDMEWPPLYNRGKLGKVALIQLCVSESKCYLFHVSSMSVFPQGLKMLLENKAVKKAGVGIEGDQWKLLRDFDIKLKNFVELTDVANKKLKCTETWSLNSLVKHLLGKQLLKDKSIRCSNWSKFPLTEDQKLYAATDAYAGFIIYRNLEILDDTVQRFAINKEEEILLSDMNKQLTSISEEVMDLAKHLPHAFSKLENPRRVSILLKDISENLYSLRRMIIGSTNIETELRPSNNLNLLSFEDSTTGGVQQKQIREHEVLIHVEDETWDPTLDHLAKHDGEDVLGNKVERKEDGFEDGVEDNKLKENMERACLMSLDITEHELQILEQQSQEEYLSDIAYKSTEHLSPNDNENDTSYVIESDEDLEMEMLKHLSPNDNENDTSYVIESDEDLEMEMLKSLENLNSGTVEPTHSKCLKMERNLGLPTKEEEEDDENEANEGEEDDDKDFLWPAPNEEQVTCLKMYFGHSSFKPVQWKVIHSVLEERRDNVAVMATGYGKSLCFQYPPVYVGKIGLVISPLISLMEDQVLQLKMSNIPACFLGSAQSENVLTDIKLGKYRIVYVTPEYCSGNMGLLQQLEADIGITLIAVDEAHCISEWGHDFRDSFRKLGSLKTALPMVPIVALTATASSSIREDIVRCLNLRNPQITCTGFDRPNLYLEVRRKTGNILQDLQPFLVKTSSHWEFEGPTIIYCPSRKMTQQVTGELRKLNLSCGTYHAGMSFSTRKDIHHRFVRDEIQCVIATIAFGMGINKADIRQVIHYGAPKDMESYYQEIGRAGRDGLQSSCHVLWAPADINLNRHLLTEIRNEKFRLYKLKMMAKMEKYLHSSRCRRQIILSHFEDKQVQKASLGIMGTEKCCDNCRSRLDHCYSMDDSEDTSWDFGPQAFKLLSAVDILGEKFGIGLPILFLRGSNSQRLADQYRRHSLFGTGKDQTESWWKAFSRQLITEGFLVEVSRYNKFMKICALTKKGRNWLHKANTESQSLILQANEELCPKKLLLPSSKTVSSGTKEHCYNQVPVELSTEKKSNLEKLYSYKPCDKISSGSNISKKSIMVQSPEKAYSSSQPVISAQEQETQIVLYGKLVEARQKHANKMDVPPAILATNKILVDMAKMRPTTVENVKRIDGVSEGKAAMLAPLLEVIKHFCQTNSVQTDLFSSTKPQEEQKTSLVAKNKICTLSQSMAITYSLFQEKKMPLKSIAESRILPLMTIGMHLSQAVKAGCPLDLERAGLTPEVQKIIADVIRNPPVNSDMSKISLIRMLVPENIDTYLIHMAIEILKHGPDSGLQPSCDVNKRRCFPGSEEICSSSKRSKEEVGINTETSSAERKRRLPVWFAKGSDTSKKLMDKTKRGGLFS
UniProt Q3ZAQ7: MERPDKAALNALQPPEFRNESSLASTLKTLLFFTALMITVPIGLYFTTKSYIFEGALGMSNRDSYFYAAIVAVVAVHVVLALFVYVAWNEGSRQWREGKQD
UniProt P04004: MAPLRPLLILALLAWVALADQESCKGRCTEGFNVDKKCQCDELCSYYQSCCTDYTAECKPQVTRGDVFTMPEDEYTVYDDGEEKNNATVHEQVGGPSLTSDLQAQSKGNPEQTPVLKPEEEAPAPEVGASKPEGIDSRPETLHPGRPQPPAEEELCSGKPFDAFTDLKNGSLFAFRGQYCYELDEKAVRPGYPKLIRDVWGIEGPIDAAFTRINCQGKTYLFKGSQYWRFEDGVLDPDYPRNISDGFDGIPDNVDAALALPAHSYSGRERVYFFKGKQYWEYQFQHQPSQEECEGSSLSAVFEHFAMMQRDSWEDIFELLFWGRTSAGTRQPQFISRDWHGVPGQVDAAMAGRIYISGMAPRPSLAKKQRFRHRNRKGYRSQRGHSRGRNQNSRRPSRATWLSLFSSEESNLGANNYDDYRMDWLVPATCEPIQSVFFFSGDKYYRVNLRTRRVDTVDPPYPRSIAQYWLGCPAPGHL

Experiments:
Assay in all cases: log2 fold change, soluble protein after heating vs DMSO (PISA); higher = thermal stabilisation; K562 lysate, 10 uM; active = over 0.2 and 3.5 SD of the protein, either way, in both replicates (recomputed)
[1] = compound: CS(=O)(=O)CCNCc1ccc(-c2ccc3ncnc(Nc4ccc(OCc5cccc(F)c5)c(Cl)c4)c3c2)o1 [lapatinib]
Procedure, shortened: (§1)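 K562 pellets were dounce-homogenised in PBS pH 7.4 containing 1 mM MgCl2, and the crude extract, at 1 mg/mL protein, was exposed to 10 μM compound for 30 min. Aliquots were heated for 3 min across 48°C-58°C, pooled, brought to 0.5% NP-40 at 4°C and spun at 21,000xg for 90 min, with the supernatant taken as soluble protein. TMTpro 16plex LC-MS/MS with equalised channel sums quantified that protein. Values are log-two fold changes in thermal stability relative to solvent controls, taken from duplicates.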

[2] = compound: CS(=O)(=O)N1CCN(Cc2cc3nc(-c4cccc5[nH]ncc45)nc(N4CCOCC4)c3s2)CC1 [pictilisib]
Procedure, shortened: as §1

[3] = compound: C[C@@H](Oc1cc(-c2cnn(C3CCNCC3)c2)cnc1N)c1c(Cl)ccc(F)c1Cl [crizotinib]
Procedure, shortened: as §1

[4] = compound: C[C@H](C1=CC=C(C=C1)C(=O)NC2=C3C=CNC3=NC=C2)N
Procedure, shortened: as §1

[5] = compound: C[C@H](Nc1ncnc2nc[nH]c12)c1cc2cccc(Cl)c2c(=O)n1-c1ccccc1 [duvelisib]
Procedure, shortened: as §1

[6] = compound: Cc1cc(Nc2cc(CN3CCOCC3)c3nc(C)c(Cc4ccc(Cl)cc4F)n3n2)n[nH]1 [gandotinib]
Procedure, shortened: as §1

[7] = compound: Cc1cc(Nc2cc(N3CCN(C)CC3)nc(Sc3ccc(NC(=O)C4CC4)cc3)n2)n[nH]1 [tozasertib]
Procedure, shortened: as §1

[8] = compound: Cc1ccc(-n2nc(C(C)(C)C)cc2NC(=O)Nc2ccc(OCCN3CCOCC3)c3ccccc23)cc1 [doramapimod]
Procedure, shortened: as §1

[9] = compound: Cc1ccc(NC(=O)c2ccc(CN3CC[C@H](N(C)C)C3)c(C(F)(F)F)c2)cc1Nc1nccc(-c2cncnc2)n1 [bafetinib]
Procedure, shortened: as §1

[10] = compound: Cc1cccc(CC(=O)N2CCc3c2ccc(-c2cn(C)c4ncnc(N)c24)c3F)n1
Procedure, shortened: as §1

[11] = compound: Cc1cn(-c2cc(NC(=O)c3ccc(C)c(Nc4nccc(-c5cccnc5)n4)c3)cc(C(F)(F)F)c2)cn1 [nilotinib]
Procedure, shortened: as §1

[12] = compound: Cc1nc(Nc2n[nH]c3c2CN(C(=O)N[C@H](CN(C)C)c2ccccc2)C3(C)C)c2sccc2n1
Procedure, shortened: as §1

[13] = compound: Cc1nc(Nc2ncc(C(=O)Nc3c(C)cccc3Cl)s2)cc(N2CCN(CCO)CC2)n1 [dasatinib]
Procedure, shortened: as §1

[14] = compound: Cc1ncc(-c2ccnc(Nc3ccc(S(C)(=O)=O)cc3)n2)n1C(C)C
Procedure, shortened: as §1

[15] = compound: Cn1cc(-c2ccc3c(c2)CCN3C(=O)Cc2cccc(C(F)(F)F)c2)c2c(N)ncnc21
Procedure, shortened: as §1

[16] = compound: Cn1cc(CNCC2CCN(c3ncc(C(=O)NO)cn3)CC2)c2ccccc21 [quisinostat]
Procedure, shortened: as §1

[17] = compound: Cn1cncc1[C@@](N)(c1ccc(Cl)cc1)c1ccc2c(c1)c(-c1cccc(Cl)c1)cc(=O)n2C [tipifarnib]
Procedure, shortened: as §1

[18] = compound: NC(=O)Nc1cc(-c2cccc(F)c2)sc1C(=O)N[C@H]1CCCNC1
Procedure, shortened: as §1

[19] = compound: NC(=O)c1cnc(N[C@@H]2CCCC[C@@H]2N)nc1Nc1cccc(-n2nccn2)c1
Procedure, shortened: as §1

[20] = compound: NC1(c2ccc(-c3nc4ccn5c(=O)[nH]nc5c4cc3-c3ccccc3)cc2)CCC1
Procedure, shortened: as §1

Target	log2 fold change [1]	log2 fold change [2]	log2 fold change [3]	log2 fold change [4]	log2 fold change [5]	log2 fold change [6]	log2 fold change [7]	log2 fold change [8]	log2 fold change [9]	log2 fold change [10]	log2 fold change [11]	log2 fold change [12]	log2 fold change [13]	log2 fold change [14]	log2 fold change [15]	log2 fold change [16]	log2 fold change [17]	log2 fold change [18]	log2 fold change [19]	log2 fold change [20]
WDR41 (UniProt Q9HAD4)	inactive: 0.013	inactive: 0.099	inactive: 0.022	inactive: -0.037	inactive: -0.026	inactive: 0.149	inactive: -0.069	active: 0.241	inactive: -0.065	inactive: 0.126	inactive: -0.012	inactive: -0.023	inactive: 0.028	inactive: -0.011	inactive: 0.005	inactive: -0.036	inactive: -0.077	inactive: -0.009	inactive: -0.032	inactive: -0.017
VWA8 (UniProt A3KMH1)	inactive: -0.122	inactive: -0.126	inactive: -0.07	inactive: 0.167	inactive: -0.005	inactive: -0.392	inactive: 0.012	inactive: -0.018	inactive: 0.015	inactive: 0.047	inactive: -0.088	inactive: 0.246	inactive: -0.037	inactive: 0.294	inactive: 0.016	inactive: 0.035	inactive: -0.307	inactive: 0.013	inactive: -0.077	inactive: -0.06
VPS33B (UniProt Q9H267)	inactive: 0.011	inactive: -0.01	inactive: 0.008	inactive: 0.001	inactive: -0.001	inactive: -0.045	inactive: 0.006	inactive: -0.01	inactive: -0.04	inactive: 0.03	inactive: -0.016	inactive: 0.017	inactive: -0.015	inactive: 0.02	inactive: 0.024	inactive: 0.015	inactive: -0.029	inactive: 0.022	inactive: -0.001	inactive: -0.012
WDR5 (UniProt P61964)	inactive: -0.027	inactive: 0.011	inactive: -0.04	inactive: -0.16	inactive: -0.018	inactive: 0.137	inactive: -0.041	inactive: -0.089	inactive: -0.043	inactive: 0.111	inactive: -0.003	inactive: 0.036	inactive: -0.02	inactive: 0.029	inactive: -0.005	inactive: -0.024	inactive: -0.031	inactive: 0.096	inactive: -0.027	inactive: 0.007
WDR47 (UniProt O94967)	inactive: 0.006	inactive: -0.128	inactive: -0.026	inactive: 0.062	inactive: -0.007	inactive: 0.187	inactive: -0.025	inactive: 0	inactive: -0.027	inactive: -0.008	inactive: 0.043	inactive: -0.075	inactive: 0.072	inactive: -0.013	inactive: 0.039	inactive: -0.039	inactive: -0.001	inactive: 0.008	inactive: -0.033	inactive: -0.01
VPS45 (UniProt Q9NRW7)	inactive: -0.002	inactive: -0.043	inactive: -0.029	inactive: -0.022	inactive: -0.025	inactive: -0.042	inactive: -0.021	inactive: -0.013	inactive: -0.039	inactive: -0.026	inactive: -0.015	inactive: -0.008	inactive: -0.01	inactive: -0.021	inactive: -0.008	inactive: -0.022	inactive: 0.028	inactive: 0.041	inactive: 0.008	inactive: -0.014
VRK2 (UniProt Q86Y07)	inactive: 0.03	inactive: 0.002	inactive: -0.069	active: 0.353	inactive: -0.016	inactive: -0.04	inactive: -0.026	inactive: -0.063	inactive: -0.03	inactive: 0.03	inactive: 0.048	inactive: 0.219	inactive: 0.185	inactive: 0.017	inactive: 0.17	inactive: -0.044	inactive: -0.018	inactive: 0.026	inactive: -0.003	inactive: -0.006
VWA5A (UniProt O00534)	inactive: -0.027	inactive: -0.039	inactive: -0.001	inactive: -0.136	inactive: -0.035	inactive: 0.054	inactive: 0.009	inactive: -0.002	inactive: -0.01	inactive: 0.048	inactive: -0.01	inactive: 0.054	inactive: -0.012	inactive: -0.034	inactive: 0.087	inactive: 0.024	inactive: 0.013	inactive: -0.024	inactive: 0.057	inactive: 0
VWDE (UniProt Q8N2E2)	inactive: -0.026	inactive: -0.032	inactive: -0.047	inactive: 0.007	inactive: 0.054	inactive: 0.005	inactive: -0.026	inactive: 0.016	inactive: 0.043	inactive: 0.029	inactive: 0.01	inactive: -0.003	inactive: -0.037	inactive: -0.072	inactive: 0.009	inactive: -0.066	inactive: -0.013	inactive: 0.058	inactive: -0.05	inactive: -0.035
WDR11 (UniProt Q9BZH6)	inactive: -0.037	inactive: 0.013	inactive: -0.105	inactive: -0.266	inactive: 0.043	inactive: 0.102	inactive: 0.053	inactive: 0.053	inactive: -0.155	inactive: 0.143	inactive: -0.098	inactive: 0	inactive: -0.018	inactive: 0.003	inactive: 0.008	inactive: -0.188	inactive: -0.007	inactive: -0.005	inactive: 0.066	inactive: -0.015
WAPL isoform 3 (UniProt Q7Z5K2)	inactive: 0.001	inactive: -0.014	inactive: -0.068	inactive: -0.113	inactive: -0.003	inactive: 0.04	inactive: 0.006	inactive: 0.054	inactive: -0.029	inactive: 0.041	inactive: 0.002	inactive: 0.04	inactive: 0.017	inactive: 0.015	inactive: -0.004	inactive: -0.104	inactive: -0.002	inactive: 0.017	inactive: 0.009	inactive: 0.02
WDR44 (UniProt Q5JSH3)	inactive: -0.007	inactive: -0.015	inactive: -0.028	inactive: -0.049	inactive: 0.003	inactive: 0.058	inactive: -0.011	inactive: 0.026	inactive: -0.025	inactive: 0.013	inactive: -0.01	inactive: -0.012	inactive: 0.012	inactive: 0.001	inactive: -0.017	inactive: -0.031	inactive: 0.009	inactive: -0.01	inactive: -0.011	inactive: -0.035
XAB2 (UniProt Q9HCS7)	inactive: -0.02	inactive: -0.051	inactive: -0.096	inactive: 0.025	inactive: 0.038	inactive: -0.055	inactive: -0.073	inactive: 0.01	inactive: 0.065	inactive: 0.028	inactive: 0.032	inactive: -0.002	inactive: -0.051	inactive: 0.048	inactive: 0.017	inactive: 0.106	inactive: -0.046	inactive: 0.046	inactive: -0.025	inactive: -0.01
WRN (UniProt Q14191)	inactive: -0.008	inactive: 0.006	inactive: -0.031	inactive: -0.042	inactive: -0.034	inactive: -0.008	inactive: 0.037	inactive: 0.02	inactive: -0.064	inactive: 0.073	inactive: -0.027	inactive: -0.018	inactive: -0.108	inactive: -0.004	inactive: 0.022	inactive: -0.042	inactive: -0.005	inactive: 0.03	inactive: 0.089	inactive: -0.013
VMA21 (UniProt Q3ZAQ7)	inactive: 0.063	inactive: 0.079	inactive: -0.095	inactive: 0.171	inactive: -0.057	inactive: -0.061	inactive: -0.005	inactive: 0.098	inactive: 0.078	inactive: -0.049	inactive: -0.005	inactive: -0.1	inactive: 0.01	inactive: 0.085	inactive: -0.119	inactive: -0.199	inactive: 0.202	inactive: 0.086	inactive: 0.006	inactive: -0.077
VTN (UniProt P04004)	inactive: -0.057	inactive: 0.026	inactive: 0.019	active: -0.384	inactive: 0.018	inactive: 0.164	inactive: -0.006	inactive: -0.023	inactive: -0.054	inactive: 0.148	inactive: 0.04	inactive: 0.064	inactive: 0.019	inactive: -0.102	inactive: 0	inactive: 0.022	inactive: -0.092	inactive: 0.006	inactive: -0.063	inactive: -0.03

Three entries from above, as a markdown table.

| Target | log2 fold change [1] | log2 fold change [2] | log2 fold change [3] | log2 fold change [4] | log2 fold change [5] | log2 fold change [6] | log2 fold change [7] | log2 fold change [8] | log2 fold change [9] | log2 fold change [10] | log2 fold change [11] | log2 fold change [12] | log2 fold change [13] | log2 fold change [14] | log2 fold change [15] | log2 fold change [16] | log2 fold change [17] | log2 fold change [18] | log2 fold change [19] | log2 fold change [20] |
| --- | --- | --- | --- | --- | --- | --- | --- | --- | --- | --- | --- | --- | --- | --- | --- | --- | --- | --- | --- | --- |
| WDR47 (UniProt O94967) | inactive: 0.006 | inactive: -0.128 | inactive: -0.026 | inactive: 0.062 | inactive: -0.007 | inactive: 0.187 | inactive: -0.025 | inactive: 0 | inactive: -0.027 | inactive: -0.008 | inactive: 0.043 | inactive: -0.075 | inactive: 0.072 | inactive: -0.013 | inactive: 0.039 | inactive: -0.039 | inactive: -0.001 | inactive: 0.008 | inactive: -0.033 | inactive: -0.01 |
| VWA5A (UniProt O00534) | inactive: -0.027 | inactive: -0.039 | inactive: -0.001 | inactive: -0.136 | inactive: -0.035 | inactive: 0.054 | inactive: 0.009 | inactive: -0.002 | inactive: -0.01 | inactive: 0.048 | inactive: -0.01 | inactive: 0.054 | inactive: -0.012 | inactive: -0.034 | inactive: 0.087 | inactive: 0.024 | inactive: 0.013 | inactive: -0.024 | inactive: 0.057 | inactive: 0 |
| WRN (UniProt Q14191) | inactive: -0.008 | inactive: 0.006 | inactive: -0.031 | inactive: -0.042 | inactive: -0.034 | inactive: -0.008 | inactive: 0.037 | inactive: 0.02 | inactive: -0.064 | inactive: 0.073 | inactive: -0.027 | inactive: -0.018 | inactive: -0.108 | inactive: -0.004 | inactive: 0.022 | inactive: -0.042 | inactive: -0.005 | inactive: 0.03 | inactive: 0.089 | inactive: -0.013 |
